The assay has as its target DNAJB6 ΔST (deletion of res. 138-182), monomeric DNAJB6 WT (human) (UniProt O75190). Kind of assay: SEC-MALS; 100 µM DNAJB6 WT, LGMDD1 disease mutants or DNAJB6 ΔST on Superose 6 Increase 10/300 GL; both purified. (In general: SEC sorts molecules by how far they enter the pores of the column.)

The chains behind the UniProt entries cited, without tags or fusion partners. Where a name states a change or a piece, a line headed by the entry shows the natural chain unless it says otherwise. A line that says so, or that is headed by a name, gives the form on record, which may keep a tag or linker.
DNAJB6 ΔST (deletion of res. 138-182), monomeric DNAJB6 WT (O75190-2, form named): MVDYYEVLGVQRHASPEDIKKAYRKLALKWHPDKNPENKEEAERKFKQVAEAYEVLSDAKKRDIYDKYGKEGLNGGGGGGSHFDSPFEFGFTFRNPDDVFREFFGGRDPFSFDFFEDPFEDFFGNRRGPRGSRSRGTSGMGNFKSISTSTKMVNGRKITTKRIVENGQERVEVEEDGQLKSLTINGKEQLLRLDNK

These are yes or no findings as the source states them, for the method shown.

The results in this text go back to paper PMC10624832.

Regarding “DNAJB6 ΔST (deletion of res. 138-182), monomeric DNAJB6 WT (from UniProt O75190-2 1-241)”, the binding result is listed as “no binding (tested: 100 µM)”.
